The target in test [1] is H103 scFv Ab (human). Description: pull-down; hypoxic HCCLM3 lysate precipitated with H103 scFv on Ni- or protein L agarose (agarose without scFv as control); blotted with commercial anti-PKM2 McAb (C-11); only the target purified.
Test [2] concerns the target human PKM2-flag (human) (UniProt P14618). Description: far-Western, overlay or dot blot; lysates of HEK293 cells transfected with PKM2-flag/pCMV-2B or pCMV-2B resolved by SDS-PAGE, blotted and probed with H103 scFv Ab (14.5 ug/mL); only the binder purified.

Chains of the proteins cited; added tags and fusions are not shown. Lines headed by an entry give the natural chain unless they say otherwise; changes in a name come on top.
UniProt P14618: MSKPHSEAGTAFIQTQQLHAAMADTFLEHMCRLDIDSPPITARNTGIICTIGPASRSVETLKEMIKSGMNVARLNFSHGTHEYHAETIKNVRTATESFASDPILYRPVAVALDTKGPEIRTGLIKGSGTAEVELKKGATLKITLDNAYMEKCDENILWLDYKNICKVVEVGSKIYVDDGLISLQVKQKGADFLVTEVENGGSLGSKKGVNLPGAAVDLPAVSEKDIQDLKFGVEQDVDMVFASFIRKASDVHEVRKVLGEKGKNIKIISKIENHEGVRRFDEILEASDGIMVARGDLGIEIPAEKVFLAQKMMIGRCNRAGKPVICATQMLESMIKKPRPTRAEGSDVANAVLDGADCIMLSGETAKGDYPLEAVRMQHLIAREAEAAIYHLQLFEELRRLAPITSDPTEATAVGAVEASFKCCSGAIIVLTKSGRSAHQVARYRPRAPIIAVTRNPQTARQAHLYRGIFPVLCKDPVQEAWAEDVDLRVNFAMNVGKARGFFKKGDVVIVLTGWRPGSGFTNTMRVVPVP

No constants are given. Whether binding was seen depends on the method and setting. For some assays here: Binding seen in cells or lysates may run through a third protein. Some results given as binding are weak or reduced against the parent protein; the word gives no strength.

Turning to “M2 splice isoform of pyruvate kinase (PKM2) (from UniProt P14618-1 1-531)”, the binding result in test [1] is “binds”.

B1: H103 scFv Ab (scFv)
scFv: GPAGHGPGAAAESGPGLVRPSGTLSLICAVSGDSISSSIWWSWVRQSPGKGLEWIGYIYHNGNTYYNPSLESRVTISVDTSENQFSLKLSSVTAADTAVYYCARGYDSSGYYWTDDRYYFDYWGQGTLVTVSSGGGGSGGGGSGGGGSNFMLTQPHSVSESPGKTVTISCTGSSGSIASNYVQWYQQRPGSAPTTVIYEDNQRPPGVPDRFSGSIDSSSNSASLTISALETEDEADYYCQSYDSRNIDVVFGGGTKVTVLGAAA
With B1, the binding result in test [2] is “binds”.
